PubChem BioAssay AID1259354 (Paczesny and Yang Labs, IUPUI and University of Michigan, 2018)
About 1,800 (2.3%) of roughly 78,000 compounds were called active. This list was built around the results that the source calls inconclusive (neither active nor inactive); the mix of calls is not that of the screen. Cut-off read from the data, not from the text of the source: active = inhibition above about 30%; inconclusive = mostly about 10% to 28%; inactive = weaker than that.

Amino acid sequences for entries named in this document (tags omitted). A change or cut given only in a name is not applied to a line headed by its entry.
UniProt Q01638: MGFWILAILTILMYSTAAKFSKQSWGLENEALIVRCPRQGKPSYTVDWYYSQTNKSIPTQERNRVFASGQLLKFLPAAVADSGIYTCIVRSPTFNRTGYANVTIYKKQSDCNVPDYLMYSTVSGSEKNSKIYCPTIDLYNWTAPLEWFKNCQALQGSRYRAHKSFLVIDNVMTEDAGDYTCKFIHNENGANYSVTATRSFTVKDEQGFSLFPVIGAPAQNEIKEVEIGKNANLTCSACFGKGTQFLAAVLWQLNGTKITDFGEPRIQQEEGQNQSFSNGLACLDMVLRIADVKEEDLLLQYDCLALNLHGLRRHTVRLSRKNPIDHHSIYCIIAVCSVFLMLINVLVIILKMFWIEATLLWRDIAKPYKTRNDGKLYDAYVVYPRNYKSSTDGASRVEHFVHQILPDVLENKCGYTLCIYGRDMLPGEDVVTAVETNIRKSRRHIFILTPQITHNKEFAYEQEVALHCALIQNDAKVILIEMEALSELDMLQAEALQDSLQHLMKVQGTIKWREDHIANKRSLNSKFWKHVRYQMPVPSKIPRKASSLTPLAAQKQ

The compounds below were run against Interleukin-1 receptor-like 1 (Homo sapiens) (UniProt Q01638) (assay: blocks human ST2 binding to IL-33, primary screen, biochemical, AlphaLISA (AID 1259354)). Conditions: AlphaLISA ST2-Fc/biotin-IL-33 interaction, 1 h; at 17 µM, stronger effect = higher value.

Row | SMILES | inhibition
1 | CCOc1ccc(/C=c2\sc3n(c2=O)CN(c2cccc(C(C)=O)c2)CN=3)cc1 | active: 31%
2 | O=C(NCc1ccccc1Cl)c1ccc(NC2=NC3CS(=O)(=O)CC3S2)cc1 (configuration not stated) | inconclusive: 15%
3 | O=C1CCCC2=C1C(c1cccc(O)c1)c1c(nc(SCc3ccccc3F)[nH]c1=O)N2 (configuration not stated) | inconclusive: 11%
4 | Cc1cccc(CSc2nc(C)nc3c2c(=O)n(C)c(=O)n3C)c1 | inactive
5 | O=C1CC(Nc2cnc3ccccc3n2)CN1Cc1ccccc1Cl (configuration not stated) | inconclusive: 12%
6 | N=C1S/C(=C\c2cn[nH]c2-c2ccc(F)cc2)C(=O)N1c1ccc(Br)cc1 | inconclusive: 28%
7 | COc1cc(NC(=O)c2ccc(OCc3ccccc3)cc2)ccc1NC(=O)c1ccco1 | inconclusive: 20%
8 | Cc1cccc(CNC(=O)c2cccn2-c2nnc(N3CCCCC3)s2)c1 | inactive
9 | Cc1ccccc1-c1cc(N2CCN(S(=O)(=O)c3cccc(Cl)c3)CC2)ncn1 | inconclusive: 14%
10 | Cc1ccsc1[C@@H]1CCN(Cc2cccn2-c2cccnc2)C[C@H]1O | inconclusive: 14%
11 | COc1ccccc1-c1cccc(C(=O)NCCN2CCOC2=O)c1 | active: 31%
12 | CC(=O)N1c2c(cc(Br)cc2S(=O)(=O)NC2CCCCC2)CC1C (configuration not stated) | inconclusive: 14%
13 | O=C(Cn1c(=O)oc2ccccc21)N1CCC2(CC1)C(=O)Nc1ccccc12 | inactive
14 | Cc1nc(N2CCC(C(=O)N3CCCC(c4ccccc4)CC3)CC2)nc2ccccc12 (configuration not stated) | inconclusive: 12%
15 | COc1cc(C=C2C(=O)N(C)C(=O)N(C)C2=O)ccc1OCc1ccccc1Cl | inconclusive: 16%
16 | COc1ccc2cc3cc(C(=O)NCc4ccc(C)o4)oc3nc2c1 | inconclusive: 15%
17 | CCCCCCCCCCCCCCCCCCNC(=O)OCC(COP(=O)([O-])OCC[n+]1ccsc1)OC (configuration not stated) | inconclusive: 17%
18 | Cc1ccc(NC(=O)c2oc3ccccc3c2NC(=O)c2cc3ccccc3oc2=O)cc1 | inactive
19 | CN1CCC(Cc2noc(-c3cccc(-c4cn[nH]c4)c3)n2)CC1 | inconclusive: 10%
20 | Cc1cc(N(C)C)nc(N2CCN(S(=O)(=O)c3ccccc3)CC2)n1 | inactive
21 | CC1CCCCN1c1nc(-c2ccc([N+](=O)[O-])cc2)nc2ccccc12 (configuration not stated) | inconclusive: 13%
22 | Cc1nc2sc(C(c3ccccc3)N3CC(C)CC(C)C3)c(O)n2n1 (configuration not stated) | inactive
23 | O=c1[nH]c2ccccc2nc1Cc1ccccc1[N+](=O)[O-] | inactive

Row | SMILES | inhibition
24 | Cc1ccccc1Oc1cc(NC(=O)CCCn2nc(C)c([N+](=O)[O-])c2C)cc([N+](=O)[O-])c1 | inconclusive: 21%
25 | COc1ccc(C(=O)c2c[nH]c3ccc(OC)cc3c2=O)cc1 | inconclusive: 11%
26 | COc1ccc(NC(=O)c2ccccc2Br)cc1 | inactive
27 | CN(Cc1ccccc1)c1ncccc1CNC(=O)c1ccc[n+]([O-])c1 | inconclusive: 14%
28 | Cn1c2c(c(=O)n(C)c1=O)CN(Cc1ccccc1)CN2 | inconclusive: 20%
29 | CCOc1ccccc1C(=O)Nc1ccc(Cl)c(N2CCCS2(=O)=O)c1 | inactive
30 | Cc1nnc([C@H]2CCN(C3CCCCC3)C2)o1 | inconclusive: 13%
31 | N#CSC(CS(=O)(=O)c1cccc([N+](=O)[O-])c1)c1ccccc1 (configuration not stated) | inconclusive: 29%
32 | COc1cc(C(=O)N2CCN(Cc3cccc([N+](=O)[O-])c3)CC2)cc(OC)c1OC | inactive
33 | Cc1nonc1OCC(C)(C)Nc1ccc(C(F)(F)F)cc1[N+](=O)[O-] | active: 36%
34 | COc1cc(Cl)c(CN(C)CC2CCN(Cc3ccc(C)o3)CC2)cc1OC | inconclusive: 18%
35 | O=C1C(=O)N(CC(O)CN2C(=O)C(=O)c3ccccc32)c2ccccc21 | inconclusive: 24%
36 | Cn1c2c(c(=O)n(C)c1=O)C(c1ccccc1Cl)C1=C(N2)c2ccccc2C1=O (configuration not stated) | inconclusive: 19%
37 | CC(C)N1CCCC(CNC(=O)c2cn[nH]c2-c2ccccc2)C1 (configuration not stated) | inactive
38 | O=C1C2(c3ccccc3)CN(CCCO)CC1(c1ccccc1)CN(CCCO)C2 | inconclusive: 12%
39 | CCC(c1ccc(OC)cc1)N(CC)C(=O)c1cccc(N2CCNC2=O)c1 (configuration not stated) | inconclusive: 13%
40 | O=C1OC(Nc2nc(-c3ccc(F)cc3)cs2)c2ccccc21 (configuration not stated) | inconclusive: 13%
41 | Cc1ccc(S(=O)(=O)NCCn2c(C(F)(F)F)nc3cccnc32)cc1Cl | inconclusive: 12%
42 | c1ccc(OCCn2c(COc3ccccc3)nc3ccccc32)cc1 | inconclusive: 21%
43 | Cc1cc2c(cc1C)NC(CC(=O)NC(N)=O)C(=O)N2 (configuration not stated) | inconclusive: 21%
44 | Cc1c(C(=O)O)sc2ncnc(N3CCN(c4ccccn4)CC3)c12 | inconclusive: 11%
45 | COc1ccccc1C1C(C(=O)Nc2ccccn2)=C(C)NC2=C1C(=O)CC(C)(C)C2 (configuration not stated) | inactive
46 | Oc1ccccc1CN1CCC(c2cc(-c3ccccc3Cl)n[nH]2)CC1 | inactive

4 records picked at random from those above:
Row | SMILES | inhibition
5 | O=C1CC(Nc2cnc3ccccc3n2)CN1Cc1ccccc1Cl (configuration not stated) | inconclusive: 12%
6 | N=C1S/C(=C\c2cn[nH]c2-c2ccc(F)cc2)C(=O)N1c1ccc(Br)cc1 | inconclusive: 28%
46 | Oc1ccccc1CN1CCC(c2cc(-c3ccccc3Cl)n[nH]2)CC1 | inactive
13 | O=C(Cn1c(=O)oc2ccccc21)N1CCC2(CC1)C(=O)Nc1ccccc12 | inactive

Going on with the list.

Row | SMILES | inhibition
47 | CC1CCN([C@@H]2[C@H](O)[C@H](CO)O[C@@H]2CNC2CCN(C)CC2)CC1 | inactive
48 | Cc1nn(Cc2ccccc2)c(C)c1[C@@H]1C=C[C@@H](NC(=O)CSCC(=O)O)C1 | inconclusive: 27%
49 | CCN(CC)CCNC(=O)Cn1nc(-c2ccccc2)ccc1=O | inconclusive: 13%
50 | Cc1nn(C)cc1C(C)n1ccnc1-c1ccc(N(C)C)nc1 (configuration not stated) | inconclusive: 14%
51 | C[C@H]1[C@@H]2[C@@H](O)C([C@H](C)C(=O)NCCN3CCOCC3)CC[C@@]2(C)CC[C@@H]1NC(=O)c1cncnc1 (some centres not stated) | inconclusive: 26%
52 | COC(=O)c1c(NC(=O)c2cccc(Oc3ccccc3)c2)sc2c1CCN(C)C2 | inconclusive: 16%
53 | COc1cc(C(=O)N2CCN(Cc3ccc(C)cc3)CC2)cc(OC)c1OC | inconclusive: 10%
54 | N#Cc1ccc(C2Oc3ccccc3C3CC(c4ccccc4)=NN32)cc1 (configuration not stated) | inconclusive: 21%
55 | Cc1cccc(N(CC(=O)NC2CCCC2)S(C)(=O)=O)c1C | inactive
56 | OCCNc1nc(-c2ccccc2)c2cc(Cl)ccc2n1 | inconclusive: 16%
57 | Cc1[nH]c2c(F)cccc2c1CC(=O)NCc1cc(=O)[nH]cn1 | inconclusive: 11%
58 | Cc1c(CN2CCOC(Cc3ccccc3Cl)C2)cnn1C (configuration not stated) | inconclusive: 11%
59 | O=C(Cn1cnc2c(cnn2-c2ccccc2)c1=O)N1CCCCCC1 | inconclusive: 12%
60 | CN(CCNC(=O)CN1C(=O)/C(=C/c2ccccc2F)Sc2ccccc21)Cc1ccccc1 | inconclusive: 20%
61 | Cc1ccc(C(c2sc3nc(C)nn3c2O)N2CCN(Cc3ccccc3)CC2)cc1 (configuration not stated) | inactive
62 | CC[C@H]1CN(C(=O)c2ccc(C)cc2C)CC[C@@]1(C)O | active: 31%
63 | COCCNC(=O)c1cc2n(n1)C(C(F)(F)F)CC(c1ccc(Cl)cc1)N2 (configuration not stated) | inconclusive: 15%
64 | CCc1cc(=O)oc2cc(OCc3ccc(C(=O)OC)cc3)ccc12 | inactive
65 | CCc1ccc2nc(N3CCC(C(=O)NCCCN(CC)CC)CC3)sc2c1 | inactive
66 | O=C1C(NC2CCCCC2)=C(N2CCOCC2)C(=O)c2ccccc21 | active: 73%
67 | NS(=O)(=O)c1ccsc1C(=O)N1CCC2(CCCO2)CC1 | inactive
68 | COc1ccc(C2CC(c3ccc([N+](=O)[O-])cc3)=NN2)cc1 (configuration not stated) | active: 30%
69 | Cc1nc2c(c(=O)n1C)CCN(Cc1ccc(Sc3nncn3C)o1)CC2 | inconclusive: 14%

Row | SMILES | inhibition
70 | CCC(C(=O)Nc1ccc(Nc2nc(C)cc(Nc3ccc(C)cc3)n2)cc1)c1ccccc1 (configuration not stated) | active: 36%
71 | O=C(C1CCN(S(=O)(=O)c2cccc3cccnc23)CC1)N1CCN(Cc2ccccc2)CC1 | inconclusive: 12%
72 | CC(C)c1nc(C(=O)N2CCCC3(CCNCC3)CC2)cs1 | inactive
73 | CCn1cc(C(=O)N2CCCCC2)c(=O)c2cc(S(=O)(=O)N3CCc4ccccc4C3)ccc21 | inactive
74 | CC1(C)ON=C(c2ccccc2)C1(Br)[N+](=O)[O-] (configuration not stated) | inconclusive: 19%
75 | O=C1c2ccccc2C(=O)N1CN(CN1C(=O)c2ccccc2C1=O)C1CC1 | inactive
76 | CC(C)OCCCNC(=O)CSc1c2c(nc3ccc(Cl)cc13)CCCC2 | inconclusive: 11%
77 | O=C(Nc1cccc(C(F)(F)F)c1)/C(=C\c1ccco1)NC(=O)c1ccsc1 | inconclusive: 11%
78 | CCOC=NC1=C(C#N)C(c2ccccc2)C2=C(CC(C)(C)CC2=O)O1 (configuration not stated) | active: 59%
79 | COc1ccc(N=Cc2c(O)n(-c3ccccc3OC)c(=O)c3ccccc23)cc1 | inconclusive: 29%
80 | COc1ccccc1N1CCN(C2CCCN(C(=O)c3cccc(NC(C)=O)c3)C2)CC1 (configuration not stated) | inconclusive: 12%
81 | COc1ccc(Cc2nnc(NC(=O)Nc3ccc(Cl)cc3)s2)cc1OC | inconclusive: 18%
82 | Cc1ccn2c(Nc3ccc4c(c3)OCO4)c(-c3ccccn3)nc2c1 | active: 31%
83 | CC1CCN(C(=O)c2cc3c(=O)oc4ccccc4c3s2)CC1 | inactive
84 | Cc1c(C)n(C(=O)CSc2n[nH]c(-c3ccccc3)n2)c2ccccc12 | inconclusive: 12%
85 | CC1(C)OC(=O)C(=CNC(CC(N)=O)C(=O)O)C(=O)O1 (configuration not stated) | inactive
86 | Cn1cccc1-c1cc(C(=O)NCc2nnc3n2CCCCC3)[nH]n1 | inactive
87 | Cc1cccc(-n2ncc3c(N4CCN(C)CC4)ncnc32)c1 | inconclusive: 14%
88 | COc1cccc(-c2c(C#N)c(N)n3c(nc4ccccc43)c2C#N)c1 | inactive
89 | CN(Cc1nc(Cc2ccccc2)no1)CC1(c2ccccc2)CC1(C)C (configuration not stated) | inconclusive: 17%
90 | N/C(=N/OC(=O)c1ccc2c(c1)OCO2)c1ccncc1 | inconclusive: 10%
91 | O=C1NC[C@@H](CCC(=O)N2CCN(c3ccccc3)CC2)N2C[C@@H](NCc3ccc(F)cc3)C[C@@H]12 | inactive
92 | COc1ccc(C(O)=Cc2nc3cc(Cl)ccc3oc2=O)cc1 | inconclusive: 23%
